From ROBIN, a set of small-molecule microarray screens (doi:10.1002/anie.202211358).

Targets (5′ to 3′):
PreQ1: PreQ1 riboswitch RNA pseudoknot, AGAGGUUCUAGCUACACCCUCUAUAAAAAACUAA. From B. subtilis. Hit rate about 0.7% of about 24,000 compounds.
TPP: TPP riboswitch RNA three-way junction, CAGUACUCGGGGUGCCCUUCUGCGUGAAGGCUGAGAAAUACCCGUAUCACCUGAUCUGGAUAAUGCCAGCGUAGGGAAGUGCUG. Hit rate about 0.7% of about 24,000 compounds.
SAM-II: SAM-II riboswitch RNA pseudoknot, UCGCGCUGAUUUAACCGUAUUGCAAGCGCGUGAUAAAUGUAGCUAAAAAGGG. Hit rate about 1% of about 21,000 compounds.

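Compounds were printed on reactive glass slides in duplicate spots, a dye-labelled oligonucleotide was laid over them, and the fluorescence left after washing was read. The data file lists only calls. An earlier report of the laboratory on the PreQ1, TPP and SAM-II riboswitches (doi:10.1038/s41467-019-09493-3) used 1 µM RNA for 2 h and required a mean Z-score above 3 (spot signal-to-noise against the whole library), a score well above that on a control array, and duplicate spots agreeing (coefficient of variation under 100); it then also set aside compounds that hit other targets, which this list keeps. The cut-offs behind this list may differ. These are primary screening calls, not affinities; a compound without a hit may have attached poorly or may still bind in solution.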
“active” means called a hit, “inactive” means screened and not called a hit.
This is an unselected part of the compounds tested.
A target missing from an entry has no call listed here.

O=C1CC(N2CCN(CCOCCO)CC2)C(=O)N1c1ccc(Br)cc1 (stereo not given) was scored PreQ1: inactive; TPP: inactive; SAM-II: inactive.
CC(=O)c1nn(-c2ccc(F)cc2)nc1Nc1cccc2ncccc12 was scored PreQ1: inactive; TPP: inactive.
CC(C)c1ccc(NCc2nnc(-c3ccccc3)o2)cc1 was scored PreQ1: inactive; TPP: inactive.
CCCCSc1nc(N)cc(N2CCOCC(CN(C)C)C2)n1 (stereo not given) was scored PreQ1: inactive; TPP: inactive; SAM-II: inactive.
COc1ccc(OC)c(CNC2=C(c3ccccc3)C(=O)c3ccccc32)c1 was scored PreQ1: inactive; TPP: inactive; SAM-II: inactive.
CC(C)(C)c1nnc(N2CCC3(CC2)CNc2ccccc23)o1 was scored PreQ1: inactive; TPP: inactive; SAM-II: inactive.
O=C(CNCCc1nc(-c2ccc(Cl)cc2)no1)Nc1cnccn1 was scored PreQ1: inactive; TPP: inactive; SAM-II: inactive.
Cc1nn(C)c(Cl)c1S(=O)(=O)N1CCNC(C(=O)O)C1 (stereo not given) was scored PreQ1: inactive; TPP: inactive; SAM-II: inactive.
CCc1ccc(OCC(O)CN2CCCC2)cc1.Cl (stereo not given) was scored PreQ1: inactive; TPP: inactive; SAM-II: inactive.
c1cnc(-c2n[nH]c(CNC3CCOC4(CCOCC4)C3)n2)cn1 (stereo not given) was scored PreQ1: inactive; TPP: inactive; SAM-II: inactive.
CN(C)[C@@H]1C[C@@H](CO)N(C(=O)c2cc3c(-c4ccccc4)nn(C)c3s2)C1 was scored PreQ1: inactive; TPP: inactive; SAM-II: inactive.
COc1ccccc1N(CC(O)COc1ccc(C)cc1)S(=O)(=O)c1ccccc1 (stereo not given) was scored PreQ1: inactive; TPP: inactive; SAM-II: inactive.
Nc1ccc2noc3c2c1C(=O)c1ccccc1-3 was scored PreQ1: inactive; TPP: inactive; SAM-II: inactive.
CCCN1C(=O)[C@H]2CC[C@@H]1CN(c1nccc(N3CCC(O)CC3)n1)C2 was scored PreQ1: inactive; TPP: inactive; SAM-II: inactive.
C1=CC2(C=C1)OC21CCC2(C=CC3(C2)OC3C2CCCCC2)CC1 (stereo not given) was scored PreQ1: inactive; TPP: inactive; SAM-II: inactive.
CCOc1ccc(Nc2c3c(nc4nncn24)CCC3)cc1 was scored PreQ1: inactive; TPP: inactive.
Cc1nc(N)sc1C(=O)N1C[C@@H](CN2CCCN(C)CC2)C[C@H](CO)C1 was scored PreQ1: inactive; TPP: inactive; SAM-II: inactive.
Cc1nn(C)c(C)c1CCC(=O)N1C[C@H](CO)C[C@H](CN(C)C)C1 was scored PreQ1: inactive; TPP: inactive; SAM-II: inactive.
CC(C)NCC(O)c1ccc(O)c(O)c1 (stereo not given) was scored PreQ1: inactive; TPP: inactive; SAM-II: inactive.
O=C(c1ccccc1)c1ccc2nc(NC3CCCCC3)c3nncn3c2c1 was scored PreQ1: inactive; TPP: inactive.
CN(C)C(=O)c1ccc(-c2cccc3c2CCNC3)o1 was scored PreQ1: inactive; TPP: inactive; SAM-II: inactive.
COc1ccc(-c2nc(N3CCOCC3)c3sc(CN(C)c4ncc(C(=O)NO)cn4)cc3n2)cn1 was scored PreQ1: inactive; TPP: inactive; SAM-II: inactive.
CCOc1cc(CNCCc2c[nH]c3ccccc23)cc(Cl)c1OCC was scored PreQ1: inactive; TPP: inactive; SAM-II: inactive.
CN(C)c1ccc2c(c1)OC(N)=C(C#N)C2c1ccncc1 (stereo not given) was scored PreQ1: inactive; TPP: inactive; SAM-II: inactive.
CN(Cc1ccc(-n2cccn2)cc1)C(=O)[C@@H]1CCN1 was scored PreQ1: inactive; TPP: inactive; SAM-II: inactive.
CCOc1nc(OCC)c2cnn(C)c2n1 was scored PreQ1: inactive; TPP: inactive; SAM-II: inactive.
O[C@@H]1CN(c2ccc(-c3ccccc3)nn2)CC[C@H]1c1ccc2c(c1)OCO2 was scored PreQ1: inactive; TPP: inactive; SAM-II: inactive.
O=C(NC(=O)c1c(F)cccc1F)Nc1cc(Cl)c(F)c(Cl)c1F was scored PreQ1: inactive; TPP: inactive; SAM-II: inactive.
O=C(NCC(O)CN1CCNCC1)c1cnn[nH]1 (stereo not given) was scored PreQ1: inactive; TPP: inactive; SAM-II: inactive.
CC1(C(=O)NCc2cc(C(F)(F)F)ccc2Cl)CCNCC1 was scored PreQ1: inactive; TPP: inactive; SAM-II: inactive.
N=C(N)NS(=O)(=O)c1ccc(/N=C2\C(=O)Nc3ccccc32)cc1 was scored PreQ1: inactive; TPP: inactive; SAM-II: inactive.
O=C(NCc1ccc2[nH]c(=O)[nH]c2c1)[C@H]1CNC[C@@H](C(=O)N2CCOCC2)C1 was scored PreQ1: inactive; TPP: inactive; SAM-II: inactive.

3 of the entries, repeated:

- COc1ccccc1N(CC(O)COc1ccc(C)cc1)S(=O)(=O)c1ccccc1 (stereo not given) | PreQ1: inactive; TPP: inactive; SAM-II: inactive
- CC(C)c1ccc(NCc2nnc(-c3ccccc3)o2)cc1 | PreQ1: inactive; TPP: inactive
- Cc1nn(C)c(C)c1CCC(=O)N1C[C@H](CO)C[C@H](CN(C)C)C1 | PreQ1: inactive; TPP: inactive; SAM-II: inactive